Source: the supplement of paper PMC3334620
The full ranking holds about 33,000 sequences; the median of “E-score (-0.5 to 0.5)” is about -0.0014, and the highest 2% start at about 0.25. Some of the results follow.

These sequences were tested against T1, Cad1 (UniProt P24813) (assay: PBM E-score (8-mer binding enrichment) (E-score (-0.5 to 0.5)); higher = stronger / more preferred TF binding). Conditions: protein concentration: 100 nM; construct: GST-full length.
T1 sequence: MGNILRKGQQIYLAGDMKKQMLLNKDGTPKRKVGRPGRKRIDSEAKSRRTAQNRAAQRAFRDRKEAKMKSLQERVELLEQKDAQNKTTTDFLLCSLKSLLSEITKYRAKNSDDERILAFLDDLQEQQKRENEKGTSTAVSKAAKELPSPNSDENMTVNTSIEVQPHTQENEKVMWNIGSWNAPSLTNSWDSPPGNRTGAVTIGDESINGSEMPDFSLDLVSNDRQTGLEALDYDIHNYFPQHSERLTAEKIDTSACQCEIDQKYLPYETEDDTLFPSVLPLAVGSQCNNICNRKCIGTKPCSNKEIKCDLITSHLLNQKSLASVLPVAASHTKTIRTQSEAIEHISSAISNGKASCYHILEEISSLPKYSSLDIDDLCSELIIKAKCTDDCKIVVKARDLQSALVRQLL
Summary of the method: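 Detection of bound protein used fluorescent anti-GST, with scans normalised by masliner. The proteins were GST-tagged yeast transcription factors applied at about 100-200 nM to universal all-10-mer Agilent arrays made double-stranded by primer extension. Each ungapped eight-base word, pooled with its reverse complement, was scored with an E-score from the Universal PBM Analysis Suite.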

Sequence | PBM E-score
AAACCCCT | -0.309
ATTAGAAC | 0.173
ACATGAGA | 0.108
AGCACGCA | -0.00337
TCTGTTAA | 0.153
ATGGGCGC | -0.147
GGTAAGCA | 0.257
ACGGGTTG | -0.238
GACGGTCC | -0.287
ACAAGTTG | 0.0213
GATGTTCA | -0.185
CCTGCGTC | -0.214
AACAAACA | 0.148
GCCAACGA | -0.033
AAATTTAG | 0.171
CCGGAGCG | -0.129
CAACGGGC | -0.0451
ACGACGAG | -0.0822
AAGCTATT | -0.0735
CTGTTATA | 0.0918
AAACGGAG | -0.0203
CAACTTAG | 0.138
GATTGTAA | 0.197
ACTAGTCT | -0.109
AATGGAGA | -0.113

Sequence | PBM E-score
AGGCAAAG | -0.132
ATTTGTTG | 0.125
GACCCTGC | -0.22
AGGGATAA | 0.0184
ATTCACGA | 0.0324
GCCGCCGA | 0.277
CGGTAGGA | -0.0236
CGTGCCGA | -0.0182
ATCCTACG | -0.201
AGGGCGTA | -0.058
GCACCGGC | -0.0831
TACAAGTA | -0.0543
CCGGTCGA | -0.105
AAACATAA | -0.131
TAAACATA | 0.221
ATCTACAT | 0.0986
GGGTACGA | -0.0805
ATATCCAG | 0.0219
CCCACTTC | -0.105
ATAGGGAG | -0.22
ATAATCCA | 0.252
GTGCCCAA | 0.0779
GAGTATAC | 0.0502
CAATACGA | 0.149
ACGGTCTG | 0.0288

Sequence | PBM E-score
AATCTGAG | -0.0799
CTTTAAAA | 0.0136
GACTAAGC | 0.228
CAGCTACA | 0.0442
GCCTTGCC | -0.151
CAATCAGG | -0.00207
TATGACAA | 0.181
CAAGCTTA | 0.159
GACTGTCC | -0.25
GCCGGCCC | -0.0332
GGGAAAAC | -0.117
ATTAAGTA | 0.136
CGTTAATA | 0.134
GGGACAAC | 0.0152
CGGTTAGC | -0.0801
ACCATTCG | -0.272
CGTAAGTC | 0.0451
ATTGCAAA | 0.112
CCGACAAC | 0.0144
AATGAGAA | -0.0166
CCTGTACC | -0.193
TATAACAA | 0.24
ATTTCGTC | 0.0814
CCCGAGGG | -0.11
GTGAAGTA | -0.00442

Sequence | PBM E-score
ACCCACCT | -0.236
AGTCGAAT | -0.0974
AACCGTTC | 0.136
AGGTGGGC | -0.179
CCTGTCAC | -0.103
GAGAAGTA | -0.0394
ATTGCACA | 0.00451
CGCACGAC | -0.0123
CGGGGAGC | -0.236
CGTCACAG | 0.168
AGTGTGAT | 0.0478
ACGCACAC | 0.191
ATAAGCGA | 0.287
AGTTCCTA | 0.131
AGCACCCA | -0.174
GAGGGGGA | -0.425
ATACGAAC | 0.134
CTCCCAGA | -0.181
GCCATGGC | -0.0289
ACAGAAGC | 0.0315
AAACTACA | 0.0808
ACGGCAGA | -0.0245
CATCGAAC | 0.0545
ACTGATCG | -0.157
GCCTGGGA | -0.136

Sequence | PBM E-score
ATAATGCG | 0.154
GGCTCCCC | -0.343
CGGGATAC | 0.0497
ATCATGTG | 0.0644
AACTTAGT | 0.0252
ATGTACGC | 0.0214
GCCCGCAC | 0.0116
ACGATATG | 0.0812
ACATTTAA | 0.253
CTCTTAAC | -0.0361
ACGAGAAC | 0.0717
GCACGGTA | -0.0652
CTGACTCC | -0.127
AAACCCTC | -0.143
TGTATAAA | 0.028
ACAGAACC | 0.0474
TATCAAGA | 0.132
AACGCTTG | -0.159
ACCTGATC | -0.111
AACGATGA | -0.00908
ACCCATAT | 0.0913
GTTTACGA | 0.0667
ACTCGGAG | -0.0623
CCGCTCCG | -0.214
CAGGCGCG | 0.0497

Single entries from the entries so far.
Value of ATGTACGC under PBM E-score: 0.0214
Value of ACATTTAA under PBM E-score: 0.253
Value of ACCTGATC under PBM E-score: -0.111
Value of ATAATGCG under PBM E-score: 0.154
Value of CTCTTAAC under PBM E-score: -0.0361
Value of TGTATAAA under PBM E-score: 0.028
Value of GGCTCCCC under PBM E-score: -0.343

(next part)

Sequence | PBM E-score
CGAGAGCG | 0.033
TACTATAA | 0.152
CAGCAACC | -0.00386
ACCGATTA | 0.123
AATAGGTC | 0.0355
ACTCGCTA | -0.041
AATACCTG | -0.0148
GAACAGGC | -0.0362
CCTCCGAA | -0.177
AATAGCGA | 0.214
GCCCGGAC | -0.285
AAACCACT | 0.0983
CTGATTGA | -0.0321
GCACTTCC | -0.204
TAGGCAAA | -0.158
AAAGGCGG | 0.0211
ATTCCCAC | 0.00183
AATGAGGC | -0.111
GCAATCAC | -0.0724
CCACAGAC | 0.0148
GGACTCAC | -0.0924
ACCGGTGG | -0.361
CGACCCCC | -0.458
GAGGTCAC | -0.0696
CCCCGAAA | -0.0484

Sequence | PBM E-score
ACCTTAAG | -0.104
AATCGTCG | 0.0858
ACGAAAGC | 0.00748
ATGAACCG | -0.113
TAATCACA | 0.121
AATGCGCG | 0.305
GTGGTAGA | -0.132
CTCGCGCA | 0.113
ACACGCCT | -0.0213
ATCTGCTA | 0.112
ATACCCAA | 0.125
AATGGCAC | -0.0846
GTCCCCAA | -0.122
GCAGGTAA | 0.0008
ACGTTGAC | 0.0708
CAAGGCGG | -0.169
AGAAGCTA | -0.198
GCTGATAC | -0.0983
CCCCAGGA | -0.344
CCGTCGAC | -0.0671
AATGACCG | -0.111
GCGTAGAA | 0.0302
